PubChem BioAssay AID1259308 – NCATS – 2017
Shown is a random part of about 59,000 deposited reagents. About 1,510 of them (2.6%) count as active. 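Calls use total luciferase alone and ignore viability, so some active siRNAs may act by altering cell number.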 The numbers tell different reagents against one gene apart. Reagent sequences are not shown.

Purpose: 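Candidate targets for better recombinant protein yield in mammalian cells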 (primary screen)
Cells: human HEK293 embryonic kidney cells stably expressing firefly luciferase (HEK-CMV-Luc2-Hygro)
Reagents: single siRNA against human genes, 0.8 pmol siRNA per well
Time to read-out: 72 h
Measured: 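Reporter luminescence and viable-cell signal on separate replicate plates, given as percent of non-targeting control and median/MAD z-scores, plus per-cell luciferase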
Reading the numbers: total luciferase, z-score and total luciferase, % of control: higher = more reporter protein produced; luciferase per cell, z-score: higher = more reporter output per viable cell; viable cells, % of control: higher = more viable cells
Hit rule: 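An siRNA counts as active if its total luciferase robust z-score exceeds 3; genes with two or more such siRNAs out of three were retested with fresh siRNAs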
Calls: active = raised luciferase; inactive = no rise

no.	gene symbol	reagent	total luciferase, z-score	total luciferase, % of control	luciferase per cell, z-score	viable cells, % of control	call
1	GDI2	1	0.21	86.1	-0.294	104	inactive
2	GDI2	2	0.137	84.6	-0.21	99.9	inactive
3	GDI2	3	-1.84	45.3	-1.11	68	inactive
4	EIF4G3	1	-0.209	77.7	-0.734	105	inactive
5	EIF4G3	2	-1.09	60.3	-1.45	98.7	inactive
6	EIF4G3	3	0.00958	82.1	-0.107	94.3	inactive
7	SLC38A5	1	1.16	105	0.727	96.9	inactive
8	SLC38A5	2	0.654	94.9	-0.276	114	inactive
9	SLC38A5	3	-0.486	72.2	-0.0734	82.3	inactive
10	DKK1	1	1.55	113	0.762	103	inactive
11	DKK1	2	0.166	85.2	0.689	79.4	inactive
12	DKK1	3	-1.84	45.2	-2.17	89.4	inactive
13	CREB3	1	2.26	127	1.64	92.2	inactive
14	CREB3	2	1.43	110	1.99	73	inactive
15	CREB3	3	-0.382	74.3	-0.792	102	inactive
16	SART3	1	1.63	114	1.64	82.8	inactive
17	SART3	2	-0.143	79	0.0277	87.7	inactive
18	SART3	3	0.719	96.2	0.714	89.1	inactive
19	HOXD13	1	0.0879	83.6	-0.151	97.3	inactive
20	HOXD13	2	2.08	123	1.05	104	inactive
21	HOXD13	3	0.527	92.4	0.709	85.6	inactive
22	TTC17	1	0.373	89.3	-0.596	117	inactive
23	TTC17	2	1.78	117	2.09	75.7	inactive
24	TTC17	3	-1.63	49.4	-1.18	75.3	inactive

Reprinted from above for reference:
no.	gene symbol	reagent	total luciferase, z-score	total luciferase, % of control	luciferase per cell, z-score	viable cells, % of control	call
5	EIF4G3	2	-1.09	60.3	-1.45	98.7	inactive
6	EIF4G3	3	0.00958	82.1	-0.107	94.3	inactive
7	SLC38A5	1	1.16	105	0.727	96.9	inactive
